According to the supplement of paper PMC6078165:
Values are relative to the signal before dosing, not to a vehicle control; the signal also falls without drug.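 Fibroblast labels denote human fibroblasts, mainly primary ones from uterus (C12385, HUF), lung (H6013), bone (Hs27A), adrenal (HADF) and skin (WS1), plus mammary HMF and breast cancer-associated Hs343T. Cancer cells are basal-like or mesenchymal-like triple-negative breast cancer lines. A hit is a response shift exceeding 3x replicate standard deviation. The tissue of the other fibroblasts is not given here.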

System: HCC1143
Test: relative JC-1 red fluorescence (viability) vs pre-drug, coculture with fibroblast (fraction); higher = more viable cancer cells
Conditions: 0.1 µM
Method: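 JC-1 labelled TNBC cells cocultured 1:1 (1,500 cells each) with CellTrace Violet stained primary or stromal fibroblasts in 384-well plates in FluoroBrite medium, treated with one of 42 anticancer drugs at 0.1, 1, 10 or 100 uM. JC-1 red fluorescence (mitochondrial integrity in cancer cells only) was read by plate reader every 8 h for 72 h. Values are normalised to each well's pre-drug value. The stock of one drug was tenfold lower, so its dose labels may be too high.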

CO[C@@]12[C@H](COC(N)=O)C3=C(C(=O)C(C)=C(N)C3=O)N1C[C@@H]1N[C@@H]12 [Mitomycin C]
relative JC-1 red fluorescence
Conditions	8 h	16 h	24 h	32 h	40 h	48 h	56 h	64 h	72 h
coculture fibroblast: C12385	0.844	0.768	0.683	0.611	0.536	0.482	0.434	0.387	0.353
coculture fibroblast: H6013	0.759	0.663	0.629	0.614	0.515	0.479	0.434	0.399	0.387
coculture fibroblast: H6019	0.857	0.804	0.793	0.749	0.702	0.643	0.597	0.553	0.504
coculture fibroblast: H6076	0.81016	0.744	0.708	0.677	0.607	0.588	0.5433	0.5131	0.506
coculture fibroblast: H6231	0.796	0.85	0.7304	0.5703	0.6173	0.5806	0.531	0.485	0.444
coculture fibroblast: HADF	0.7329	0.655	0.631	0.659	0.551	0.521	0.488	0.463	0.47
coculture fibroblast: HCFa	0.7956	0.679	0.651	0.641	0.543	0.497	0.457	0.421	0.418
coculture fibroblast: HCPF	0.7769	0.825	0.748	0.609	0.657	0.616	0.58	0.538	0.511
coculture fibroblast: HHSteC	0.8	0.6689	0.6222	0.5805	0.489	0.4549	0.406	0.376	0.33
coculture fibroblast: HMF	0.777	0.855	0.753	0.617	0.626	0.589	0.538	0.506	0.466
coculture fibroblast: HPFa	0.921	0.818	0.784	0.694	0.623	0.585	0.525	0.471	0.427
coculture fibroblast: HUF	0.877	0.755	0.686	0.5979	0.542	0.497	0.447	0.407	0.377
coculture fibroblast: Hs5	0.877	0.878	0.856	0.854	0.784	0.776	0.755	0.739	0.753
coculture fibroblast: Hs27A	0.711	0.623	0.59	0.6137	0.5141	0.509	0.475	0.467	0.47
coculture fibroblast: Hs343T	0.8128	0.816	0.7626	0.699	0.673	0.643	0.592	0.573	0.537
coculture fibroblast: WS1	0.8027	0.706	0.638	0.571	0.524	0.486	0.437	0.399	0.372
